The source of these data is US6346514B1, “Pharmaceutical lysine-containing polypeptide compositions and methods of use thereof” (priority 1991, dated 2002).

Further values from the same series stand in other lists.

In the test the test system is Vibrio anguillarum (V-775). Nature of the test: Vaccine augmentation in Rainbow trout challenged with Vibrio anguillarum. In kind it is in vivo, Rainbow trout (Oncorhynchus mykiss). As for the experimental part:
In the present investigation, fish were obtained and inoculated at approximately 12 weeks of age. Immunologic studies were conducted under a variety of conditions in which fish were provided with vaccination to observe vaccine augmentation, and under conditions in which no vaccine was provided prior to inoculum. The effects of exposure time, HM897 concentration, and vaccine on mortalities relative to control studies in which no HM897 was administered provided data for analysis of the immunologic effect of HM897.
The study was conducted using Rainbow trout (Oncorhynchus mykiss) to compare the effects of a standard fish vaccine to the protection provided by varying dosages of HM897. The fish were challenged with Vibrio anguillarum (V-775), a bacteria that causes fatal vibriosis, typically 3-5 days following pathogen exposure.
Rainbow Trout (Oncorhynchus mykiss) weighing approximately 5 grams were used as test organisms. The fish were obtained from Cran-Mar Trout Farm. Upon arrival at BRL's facility, the fish were quarantined for a minimum of seven days, and observed to be disease free. During this period, the fish were held at a stable temperature. There was consistent water quality in an aerated flow-through system with a flow rate of approximately 30 liters per hour. During the holding period the fish were observed daily for signs of disease, stress, injury, hemorrhaging, and external parasite. The fish were not fed 48 hours prior to testing.
The Rainbow trout used in this study weighed an average of 5 grams. The fish were divided into 21 groups with 50 fish per group. Each group of 50 fish was maintained in two 10-gallon tanks (25 fish/tank).
The level of bacterial dilution to achieve a LD75 (the level designed to kill 75% of the non-vaccinated fish) was a dilution of 10^−4. to 10^−5. The challenge bacteria were grown for 48 hours at 25° C in trypticase soy broth. The 10^−4 dilution was made from this broth in 0.9% saline. All fish excepting the control group that received no bacterial challenge were inoculated 7 days after exposure to HM897.
Rainbow trout hatchling were exposed to the concentration of HM897 as described below. Some of the fish had been vaccinated while others had received no vaccination. In each tank, fifty vaccinated or unvaccinated fish were exposed for a period of 5 minutes to HM897, and then removed and placed in an assigned tank according to the group number.
The positive control group (III) received a vaccine made from Vibrio anguillarum (V-775). This was made through a fermentation and extraction process in the BRL laboratory facility and is equivalent to the aquaculture industry standard vibrio vaccine.
All groups scheduled to be challenged with the Vibrio anguillarum bacterium were challenged at the LD75 dilution on day seven of the experiment by i.p. injection of 0.1 mL of 10^−4 bacterial dilution. The fish were observed daily for mortalities.

With Thr-Ala-Glu-Glu-Lys (TAEEK) [HM897], the “Cumulative Mortalities” value was determined as 0 (Day 1, Group Ve: not vaccinated, HM897 250 μg/38 liters); 0 (Day 2.10, Group Ve: not vaccinated, HM897 250 μg/38 liters); 0 (Day 11, Group Ve: not vaccinated, HM897 250 μg/38 liters); 0 (Day 12, Group Ve: not vaccinated, HM897 250 μg/38 liters); 14 (Day 13, Group Ve: not vaccinated, HM897 250 μg/38 liters); 23 (Day 14, Group Vd: not vaccinated, HM897 150 μg/38 liters). For the same substance, the “Cumulative Mortalities” value runs as follows: (Day 14, Group Ve: not vaccinated, HM897 250 μg/38 liters) 25; (Day 15, Group Vd: not vaccinated, HM897 150 μg/38 liters) 28; (Day 15, Group Ve: not vaccinated, HM897 250 μg/38 liters) 30; (Day 16, Group Vd: not vaccinated, HM897 150 μg/38 liters) 32; (Day 16, Group Ve: not vaccinated, HM897 250 μg/38 liters) 32; (Day 17, Group Vd: not vaccinated, HM897 150 μg/38 liters) 32. The “Cumulative Mortalities” value came to 34 (Day 17, Group Ve: not vaccinated, HM897 250 μg/38 liters); 34 (Day 18, Group Ve: not vaccinated, HM897 250 μg/38 liters); 34 (Day 19, Group Ve: not vaccinated, HM897 250 μg/38 liters); 34 (Day 20, Group Ve: not vaccinated, HM897 250 μg/38 liters); 34 (Day 21, Group Ve: not vaccinated, HM897 250 μg/38 liters).
